Values from PubChem BioAssay AID504808 (Drosophila RNAi Screening Center, 2011).

Test: 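Fly genes required to hold E2F transcription in check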 (primary screen)
System: Drosophila S2 cells
Reagents: long dsRNA against Drosophila genes
Measured: 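Firefly luciferase driven by E2F sites, normalised to Renilla luciferase on the same minimal promoter, measured by plate reader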
Scale: E2F firefly: higher = more E2F reporter activity; Renilla normaliser: higher = more normaliser reporter signal
Active means: 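a knock-down counted as active when the firefly/Renilla E2F signal rose above 50%, a threshold chosen arbitrarily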
The deposit covers about 21,000 reagents; this is an unselected part of those that have a named target and a result. Over the whole deposit, 18 (0.084%) were called active. 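Raw counts without plate normalisation, one of two replicates; the ratio scores behind the calls were not deposited.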 Names joined by + are all predicted targets of the reagent. Not stated in the record: the amount of reagent, the time to read-out.

gene knocked down,dsRNA,"E2F firefly, rep 1","Renilla normaliser, rep 1",Call
Acsx4 (GeneID 42355),DRSC14311,1.31e5,7661,inactive
CG11902 (GeneID 43070),DRSC14434,1.05e5,5961,inactive
mRpL52 (GeneID 35711),DRSC06585,1.49e5,5160,inactive
CG33340 (GeneID 2768682),DRSC14615,1.05e5,6324,inactive
Zip71B (GeneID 39626),DRSC09686,1.65e5,8004,inactive
RpS5b (GeneID 41807),DRSC16173,1.15e5,7218,inactive
Hecw (GeneID 31905),DRSC18261,1.37e5,5613,inactive
Hecw (GeneID 31905),DRSC18276,1.32e5,4971,inactive
Vha55 (GeneID 41550),DRSC16896,65886,3525,inactive
Rrp45 (GeneID 32665),DRSC20198,2.37e5,7100,inactive
Ugt301D1 (GeneID 35105),DRSC02021,95692,4173,inactive
ash1 (GeneID 40133),DRSC11325,66170,3385,inactive
CanA-14F (GeneID 8674098),DRSC20211,2.52e5,6633,inactive
Spec2 (retired record) (GeneID 3772539),DRSC12258,1.27e5,6047,inactive
RyR (GeneID 49090),DRSC07543,1.52e5,5184,inactive
CG18213 (GeneID 42055),DRSC15316,1.19e5,5955,inactive
Ciz1 (GeneID 39161),DRSC09675,1.07e5,7452,inactive
CG1951 (GeneID 43423),DRSC15403,1793,968,inactive
CG15472 (GeneID 31409),DRSC18055,1.12e5,5977,inactive
Pof (GeneID 37947),DRSC04405,94679,3736,inactive
CG15034 (GeneID 31670),DRSC17966,1.09e5,5123,inactive
CG10165 (GeneID 35242),DRSC02017,1.01e5,4032,inactive
CG34188 (GeneID 5740108),DRSC05549,1.30e5,5570,inactive
Su(dx) (GeneID 33379),DRSC00791,85354,3377,inactive
CG18558 (GeneID 33482),DRSC00525,1.61e5,5415,inactive
Cdep (GeneID 40608),DRSC12028,92010,3294,inactive
Cdep (GeneID 40608),DRSC12220,73200,2981,inactive
Cdep (GeneID 40608),DRSC12291,1.24e5,6184,inactive
CG42324 (GeneID 38430),DRSC08431,1.09e5,4113,inactive
CG42324 (GeneID 38430),DRSC08432,1.09e5,4678,inactive
CG3071 (GeneID 31213),DRSC18526,1923,952,inactive
Zasp66 (GeneID 38988),DRSC08932,1.32e5,4982,inactive
Zasp66 (GeneID 38988),DRSC10631,76883,3939,inactive
Zasp66 (GeneID 38988),DRSC10632,1.02e5,3428,inactive
Spn28F (GeneID 49807),DRSC03615,1.30e5,4697,inactive
mah (GeneID 42988),DRSC14645,1.05e5,6160,inactive
Gcn2 (GeneID 43709),DRSC16678,2002,976,inactive
CG18480 (GeneID 34920),DRSC01957,82885,3503,inactive
Cks85A (GeneID 41034),DRSC16562,1.28e5,6564,inactive
SH3PX1 (GeneID 39136),DRSC11139,1.06e5,5204,inactive
CG7747 (GeneID 36820),DRSC07038,62197,3392,inactive
CCHa2 (GeneID 41648),DRSC14835,1.20e5,6413,inactive
Lcp1 (GeneID 35817),DRSC07455,1.49e5,4741,inactive
CG15286 (GeneID 34834),DRSC01907,86175,4230,inactive
CG17633 (GeneID 34297),DRSC02631,1.39e5,5158,inactive
CAH13 (GeneID 36126),DRSC06128,1.46e5,5522,inactive
Grl36b (GeneID 318940),DRSC01627,1.48e5,5969,inactive
deltaCOP (GeneID 45250),DRSC18760,1292,1076,inactive
CG13623 (GeneID 42926),DRSC14625,1.11e5,5788,inactive
nmo (GeneID 38890),DRSC08902,1.35e5,5094,inactive
nmo (GeneID 38890),DRSC11377,80531,3652,inactive
CG8312 (GeneID 41163),DRSC16406,1.24e5,5975,inactive
CG33768 (GeneID 3771840),DRSC11715,1.18e5,6737,inactive
CG10562 (GeneID 43066),DRSC14257,2043,1056,inactive
Prp3 (GeneID 40172),DRSC10912,95450,7115,inactive
CG7514 (GeneID 38571),DRSC08597,99243,4023,inactive
kay (GeneID 3772082),DRSC13962,74338,2311,inactive
kay (GeneID 3772082),DRSC15048,77322,3699,inactive
kay (GeneID 3772082),DRSC16977,2242,864,inactive
CG9150 (GeneID 33856),DRSC03148,1.46e5,5497,inactive
CG14567 (GeneID 40420),DRSC11728,1.40e5,6346,inactive
PH4alphaNE3 (GeneID 326114),DRSC16541,1834,780,inactive
CG14691 (GeneID 41287),DRSC14914,1.62e5,6311,inactive
Adsl (GeneID 42051),DRSC15500,62986,3469,inactive
Ugt49C1 (GeneID 37421),DRSC04252,1.07e5,4284,inactive
mu2 (GeneID 38257),DRSC08726,67893,2903,inactive
CG11755 (GeneID 41031),DRSC14374,1.39e5,7073,inactive
Ugt50B3 (GeneID 246614),DRSC04778,1.28e5,3551,inactive
Ugt50B3 (GeneID 246614),DRSC04779,1.30e5,5914,inactive
CG10081 (GeneID 37226),DRSC05962,1.46e5,5193,inactive
Cdc50 (GeneID 32615),DRSC20224,1.47e5,6658,inactive
sip3 (GeneID 43747),DRSC15402,1781,972,inactive
Pfdn5 (GeneID 42647),DRSC16183,62309,2857,inactive
CG6769 (GeneID 32770),DRSC20006,1.42e5,5966,inactive
CG9518 (GeneID 32416),DRSC20194,1.43e5,7209,inactive
CG33230 (GeneID 2768998),DRSC08602,83804,3282,inactive
CG3769 (GeneID 34262),DRSC02723,1.45e5,4622,inactive
CG11089 + CG31381,DRSC13690,81660,2829,inactive
CG11089 + CG31381,DRSC14290,72872,3221,inactive
Cpr49Af (GeneID 36352),DRSC07202,94637,4063,inactive
Gr58b (GeneID 37502),DRSC04140,1.04e5,4428,inactive
CG31910 + snoRNA:Me28S-G2743 (retired record),DRSC00946,1.30e5,5908,inactive
CG17646 (GeneID 33354),DRSC00507,92183,3934,inactive
CG4497 (GeneID 34001),DRSC02754,96190,4088,inactive

Only “E2F firefly, rep 1”, for 10 of the entries above:
CG1951 (GeneID 43423) [DRSC15403]: 1793
CG15472 (GeneID 31409) [DRSC18055]: 1.12e5
Pof (GeneID 37947) [DRSC04405]: 94679
CG15034 (GeneID 31670) [DRSC17966]: 1.09e5
CG10165 (GeneID 35242) [DRSC02017]: 1.01e5
CG34188 (GeneID 5740108) [DRSC05549]: 1.30e5
Su(dx) (GeneID 33379) [DRSC00791]: 85354
CG18558 (GeneID 33482) [DRSC00525]: 1.61e5
Cdep (GeneID 40608) [DRSC12028]: 92010
Cdep (GeneID 40608) [DRSC12220]: 73200
